Experimental findings from publication PMC4103454, “FAN1 Activity on Asymmetric Repair Intermediates Is Mediated by an Atypical Monomeric Virus-type Replication-Repair Nuclease Domain” (Cell Reports, 2014) are described below.

Chains of the proteins cited; added tags and fusions are not shown. Residues count along the entry.
UniProt Q9Y2M0, residues 360-1017: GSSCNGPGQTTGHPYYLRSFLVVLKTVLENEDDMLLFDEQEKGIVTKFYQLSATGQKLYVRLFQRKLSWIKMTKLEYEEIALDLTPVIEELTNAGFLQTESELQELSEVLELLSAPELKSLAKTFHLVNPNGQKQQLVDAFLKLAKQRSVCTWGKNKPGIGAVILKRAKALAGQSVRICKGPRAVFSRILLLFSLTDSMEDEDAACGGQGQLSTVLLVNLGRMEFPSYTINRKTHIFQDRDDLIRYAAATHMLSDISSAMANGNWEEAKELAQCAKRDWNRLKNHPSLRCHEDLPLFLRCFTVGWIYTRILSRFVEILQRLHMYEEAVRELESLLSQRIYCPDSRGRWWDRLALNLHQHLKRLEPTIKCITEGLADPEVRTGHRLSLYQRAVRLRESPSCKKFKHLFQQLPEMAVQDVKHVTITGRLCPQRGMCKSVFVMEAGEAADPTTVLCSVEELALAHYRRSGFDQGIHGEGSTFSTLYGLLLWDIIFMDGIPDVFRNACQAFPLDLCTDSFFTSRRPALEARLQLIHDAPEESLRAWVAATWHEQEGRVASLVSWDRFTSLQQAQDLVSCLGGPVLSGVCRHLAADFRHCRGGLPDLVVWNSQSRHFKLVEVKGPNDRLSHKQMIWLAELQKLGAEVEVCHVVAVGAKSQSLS

The target of test [1] is hFAN1_360 (human FAN1 without its first 359 residues) (human) (UniProt Q9Y2M0). Briefly: SEC; analytical gel filtration, S200, retention times against molecular weight standards; both purified.
In test [2] the target is Pseudomonas aeruginosa FAN1 (Pseudomonas aeruginosa) (UniProt Q9I2N0). The test is described as above.
For test [3] the target is unchanged. Briefly: AUC; sedimentation velocity, 50,000 rpm, 277 K, 50 mM Tris/HCl pH 8.0, 300 mM NaCl, 0.50 mM TCEP, interference optics, SEDFIT c(s) and c(M); both purified.
Test [4] addresses psNUC, VRR-Nuc single-domain protein of Psychrobacter (Psychrobacter) (UniProt A5WF35). As to the kind of experiment: crystal structure; sitting drop vapor diffusion, Morpheus screen; data collected at 100 K; homodimers seen in the crystals; both purified.

These are yes or no findings as the source states them, for the method shown. Some results given as binding are weak or reduced against the parent protein; the word gives no strength.

As for “hFAN1_360 (human FAN1 without its first 359 residues) (from UniProt Q9Y2M0 360-1017) (domain or fragment)”, the binding entry in test [1] is “no binding”.

B1: Pseudomonas aeruginosa FAN1 (enzyme, UniProt Q9I2N0 1-559)
chain: MHEQYQAPLPVNSPALPEPFYYLHNFRAVLAWIGERYADLLDDQERAFIAAFAELPEASQALLVRMVMRKGTLFREGKLAYAEIGDTRAAVQPLLALGWVDAQPTLELAQLFGLLKKDELSQLFRDHLGRANLRKDALLERLQPLFPEARRLAEWQADFAEPVYELRCMALCDRLRLMYFGNLWQDWSEFVLADLGIYRYESVEFSADSRGFRLRADVDAYLHLFDCRQRFDLGEPLEELLAGLPGEPYANPWLEGRRVKLLFQFAQHCEKQRDFDLAQRLYRQSSHPGARLRAIRSLERGERFAEAHALAREASCAPESDAERQGLARLLPRLQGKLGLPRQARAAAPEIDRLDLCLAFPSEPCSVEWAVREHLEEPGCAVHYVENGLINSLFGLLCWEAIFAAIPGAFFHPFHSAPADLHSADFRQRRAALFEACLGRLEDGSYRDAIRCRYRDKFGLQSPFVYWELLGEELLEQALDCLPAAHLRAWFERLLEDIPGNRAGLPDLIQFWPAQRRYRMVEVKGPGDRLQDNQLRWLQFCREREMPVAVCYVRWHVDD
With B1, the binding entry in test [2] and in test [3] was “no binding” in each case.

B2: psNUC, VRR-Nuc single-domain protein of Psychrobacter (enzyme)
chain: RLKGLTEDEVQTVVMNWSKRQKFKGRPLFDYIHHSPNGGKRAAKIGSSGKRYSPEAAKFKRMGVKAGYPDLIIDIARGAYHGLRIEIKKDGNSYATPAQKERIEMLAKEGYCAVVAKGIDNVISVIQQYIKLGDFDGVSQLTADK
notes: psNUC, standalone VRR-Nuc domain protein of Psychrobacter, UniProt A5WF35; Synthetic gene (GeneART) in pGEX 6P-1; The structure was solved by SAD on a selenomethionine derivative; source: E. coli, purified (glutathione-Sepharose, 3C protease cleavage, Superdex gel filtration)
With B2, in test [4], the binding result is on record as “binds”.
